Experimental data published in patent US9920300B2, “Induction of germ cells from pluripotent cells” (The Board of Trustees of the Leland Stanford Junior …, priority 2009, dated 2018).
Some results were stated once for a whole list of compounds, not compound by compound. At least one structure is not confirmed: it was looked up by name or label, or the drawing left a doubt.

Test system: hESCs (H9) differentiating to germ cells
Assay: qPCR gene expression in hESCs differentiated with BMPs in the presence of PAHs
Assay type: cell-based, human
Conditions: qPCR normalized to DMSO control
Description: A federally approved hESC line (H9, XX) was maintained and differentiated as previously described (see methods of Kee, K., et al. (2006) Stem Cells & Differentiation 15: 831-837, the disclosure of which is incorporated herein). Briefly, adherent differentiation began upon the addition of differentiation media containing 20% FBS (Hyclone) and supplemented with Bone Morphogenetic Proteins (BMPs) -4, -7, and -8b (R&D) reconstituted in 4 mM HCl/0.1% BSA and used at 50 ng/ml. DMBA (Sigma), ANF (Sigma) and DMBA-DHD(MRI) were dissolved in DMSO at a 1:1000 dilution before adding to the media to the indicated final concentrations.
Total RNA was extracted using the RNeasy kit (Qiagen) and cDNA prepared with SuperScriptIII (Invitrogen) according to the manufacturer's protocols using 1 μg RNA. The cDNA was subjected to a pre-amplification using 1.25 μl out of 20 μl total cDNA, 1 μl Platinum Taq (Invitrogen), 5 μl CellsDirect 2× Reaction Buffer and 2.5 μl 0.2× Taqman (Applied Biosystem) probe mix. PCR cycle program for pre-amplification is: 95° C., 10 minutes; 95° C., 15 seconds and 60° C., 4 minutes for 14 cycles. […] All delta-delta Ct values were calculated using four housekeeping genes (GAPDH, CTNNB1, ACTS, CENTRIN) except in experiment in FIG. 35, which only used GAPDH as housekeeping gene in a regular qPCR reaction in 7300 Real Time PCR System (Applied Biosystems).

Cc1c2ccccc2c(C)c2c3c(ccc12)C(O)C(O)C=C3 (centres unmarked) [DMBA-DHD, DMBA-3,4-dihydrodiol]
Expression of PRDM1: 0.4 to 0.06 of control | Expression of VASA and DAZL (over concentrations tested (DMBA 1, 10 μM; DMBA-DHD 0.1, 1 μM)): 0.2 to 0.02 of control levels
